Results: PMC7334207, “Select amino acids in DGCR8 are essential for the UGU-pri-miRNA interaction and processing” (Communications Biology, 2020)
Residue numbers refer to the chain shown, from its start. Results are given in words; binding and its absence hold for the method and conditions named. Binding seen in cells or lysates may run through a third protein. Some binding calls cover weakened binding; strength is not graded here. Where a sequence is shown, tags or fusion partners need not be part of it. Blank lines part the entries; values can stand above or below the binder they belong to.

Experiments:
[1] = target: T1, protein G-tagged G478del–WT (human) (UniProt Q8WYQ5); assay: pull-down; tandem affinity purification from E. coli co-expressing both subunits: Ni2+-agarose (captures the 10×His-tagged mut1), then IgG–sepharose (captures the protein G-tagged WT), release with human Rhinovirus 3C protease at 4 °C overnight, then S-cation exchange column
T1 sequence: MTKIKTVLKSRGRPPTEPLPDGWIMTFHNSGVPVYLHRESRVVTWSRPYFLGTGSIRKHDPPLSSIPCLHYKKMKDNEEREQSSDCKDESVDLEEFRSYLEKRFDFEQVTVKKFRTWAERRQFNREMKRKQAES

[2] = target: T2, protein G-tagged G4–WT (human) (UniProt Q8WYQ5); assay: as above
T2 sequence: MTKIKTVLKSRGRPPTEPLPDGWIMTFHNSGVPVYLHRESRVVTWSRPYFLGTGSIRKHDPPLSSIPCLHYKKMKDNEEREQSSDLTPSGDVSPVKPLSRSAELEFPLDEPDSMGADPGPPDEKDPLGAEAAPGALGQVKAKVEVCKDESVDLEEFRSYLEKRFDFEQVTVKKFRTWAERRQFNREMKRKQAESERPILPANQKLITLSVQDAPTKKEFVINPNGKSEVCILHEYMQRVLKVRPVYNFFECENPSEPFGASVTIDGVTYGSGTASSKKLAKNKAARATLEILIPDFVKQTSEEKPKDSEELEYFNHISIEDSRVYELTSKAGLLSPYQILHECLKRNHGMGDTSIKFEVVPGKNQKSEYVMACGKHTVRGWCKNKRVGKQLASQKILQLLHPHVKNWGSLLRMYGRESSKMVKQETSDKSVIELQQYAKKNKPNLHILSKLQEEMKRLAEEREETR

binding [1]: binds
B1: G478del-mut1, G478del with AGQ in the 461–463 region instead of WAE (domain or fragment, human, UniProt Q8WYQ5 285-478, looked up)
chain: T1 sequence with W117A, A118G, E119Q
notes: Associated with hemin; source: E. coli, purified (as described for G478del)

binding [2]: binds
B2: 10×His-tagged G4–mut1 (domain or fragment, UniProt Q8WYQ5 285-750)
chain: T2 sequence with W177A, A178G, E179Q
